{"source": "PubChem BioAssay AID1159584 – Peter MacCallum Cancer Centre, 2016", "assay": "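Genes that CDH1-null MCF10A cells selectively depend on to survive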 (primary screen)", "system": "human MCF10A breast epithelial cells, parental and CDH1-null", "reagents": "siRNA against human genes", "measured": "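ATP luminescence (CellTiter-Glo) viability per line relative to mean mock wells over all plates, and the ratio of CDH1-null to parental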", "reading the numbers": "CDH1-null / parental viability ratio: higher = CDH1-null cells survive relatively better than parental; CDH1-null viability vs mock: higher = more viable CDH1-null cells", "units": "CDH1-null viability vs mock in fraction of mock", "note": "Shown is a random part of about 18,000 reagents. The numbers tell different reagents against one gene apart. Not all columns of the deposit are shown. Not stated in the record: the amount of reagent, the time to read-out."}
{"Gene": "CDV3 (GeneID 55573)", "reagent": 1, "CDH1-null / parental viability ratio": 0.98, "CDH1-null viability vs mock": 0.94}
{"Gene": "DYNLT2B (GeneID 255758)", "reagent": 1, "CDH1-null / parental viability ratio": 1.02, "CDH1-null viability vs mock": 0.94}
{"Gene": "RHOF (GeneID 54509)", "reagent": 1, "CDH1-null / parental viability ratio": 1, "CDH1-null viability vs mock": 0.96}
{"Gene": "SPIN2B (GeneID 474343)", "reagent": 1, "CDH1-null / parental viability ratio": 0.99, "CDH1-null viability vs mock": 0.77}
{"Gene": "RIMS1 (GeneID 22999)", "reagent": 1, "CDH1-null / parental viability ratio": 1.08, "CDH1-null viability vs mock": 0.93}
{"Gene": "CLCN6 (GeneID 1185)", "reagent": 1, "CDH1-null / parental viability ratio": 1.2, "CDH1-null viability vs mock": 0.97}
{"Gene": "DEFB110 (GeneID 245913)", "reagent": 1, "CDH1-null / parental viability ratio": 1.23, "CDH1-null viability vs mock": 1.01}
{"Gene": "DEFB110 (GeneID 245913)", "reagent": 2, "CDH1-null / parental viability ratio": 1.06, "CDH1-null viability vs mock": 0.87}
{"Gene": "ZNF630 (GeneID 57232)", "reagent": 1, "CDH1-null / parental viability ratio": 1.33, "CDH1-null viability vs mock": 0.76}
{"Gene": "GCGR (GeneID 2642)", "reagent": 1, "CDH1-null / parental viability ratio": 0.86, "CDH1-null viability vs mock": 0.77}
{"Gene": "G6PD (GeneID 2539)", "reagent": 1, "CDH1-null / parental viability ratio": 0.81, "CDH1-null viability vs mock": 0.68}
{"Gene": "MGME1 (GeneID 92667)", "reagent": 1, "CDH1-null / parental viability ratio": 0.89, "CDH1-null viability vs mock": 0.8}
{"Gene": "PRXL2C (GeneID 195827)", "reagent": 1, "CDH1-null / parental viability ratio": 1.14, "CDH1-null viability vs mock": 1.25}
{"Gene": "NOC3L (GeneID 64318)", "reagent": 1, "CDH1-null / parental viability ratio": 1.06, "CDH1-null viability vs mock": 0.74}

No new results follow: an excerpt of the list.
{"Gene": "CLCN6 (GeneID 1185)", "reagent": 1, "CDH1-null / parental viability ratio": 1.2, "CDH1-null viability vs mock": 0.97}
{"Gene": "DEFB110 (GeneID 245913)", "reagent": 1, "CDH1-null / parental viability ratio": 1.23, "CDH1-null viability vs mock": 1.01}
